Values from PubChem BioAssay AID1259425 (University of Nebraska Medical Center, 2018).
Shown is a random part of about 14,000 deposited reagents. Not all columns of the deposit are shown. Reagent sequences are not shown. Not stated in the record: the time to read-out.

Screen: 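Compare each knockdown with KSR1 silencing using changes in marker transcripts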 (primary screen)
Cell system: HCT116 human colon cancer cells
Reagents: siRNA pool against human genes, 50 nM siRNA
Measurement: 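mRNA of six signature genes measured together by branched-DNA assay after 50 nM siRNA pool, blank removed, divided by geometric mean of two housekeeping genes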
Scale: BNIP3L mRNA: higher = more BNIP3L transcript after knockdown; NDRG1 mRNA: higher = more NDRG1 transcript after knockdown

FSD1L: BNIP3L mRNA, set 1 = 0.197; NDRG1 mRNA, set 1 = 0.157
PRR4: BNIP3L mRNA, set 1 = 0.13; NDRG1 mRNA, set 1 = 0.0689
PCDHA10: BNIP3L mRNA, set 1 = 0.108; NDRG1 mRNA, set 1 = 0.0582
ZNF155: BNIP3L mRNA, set 1 = 0.142; NDRG1 mRNA, set 1 = 0.145
IFT52: BNIP3L mRNA, set 1 = 0.0855; NDRG1 mRNA, set 1 = 0.567
PRKCSH: BNIP3L mRNA, set 1 = 0.139; NDRG1 mRNA, set 1 = 0.0803
MRPL32: BNIP3L mRNA, set 1 = 0.0635; NDRG1 mRNA, set 1 = 0.29
ALAD: BNIP3L mRNA, set 1 = 0.175; NDRG1 mRNA, set 1 = 0.916
L1CAM: BNIP3L mRNA, set 1 = 0.147; NDRG1 mRNA, set 1 = 0.275
TXNDC2: BNIP3L mRNA, set 1 = 0.261; NDRG1 mRNA, set 1 = 0.209
PMF1: BNIP3L mRNA, set 1 = 0.0877; NDRG1 mRNA, set 1 = 0.137
PRR15L: BNIP3L mRNA, set 1 = 0.0514; NDRG1 mRNA, set 1 = 0.0913
ADRA1D: BNIP3L mRNA, set 1 = 0.176; NDRG1 mRNA, set 1 = 0.204
PTCH2: BNIP3L mRNA, set 1 = 0.0646; NDRG1 mRNA, set 1 = 0.205
GPM6A: BNIP3L mRNA, set 1 = 0.0912; NDRG1 mRNA, set 1 = 0.124
NDST4: BNIP3L mRNA, set 1 = 0.0928; NDRG1 mRNA, set 1 = 0.127
CCDC92: BNIP3L mRNA, set 1 = 0.177; NDRG1 mRNA, set 1 = 0.299
MUC4: BNIP3L mRNA, set 1 = 0.0845; NDRG1 mRNA, set 1 = 0.654
TLE6: BNIP3L mRNA, set 1 = 0.264; NDRG1 mRNA, set 1 = 0.322
CCL4: BNIP3L mRNA, set 1 = 0.182; NDRG1 mRNA, set 1 = 0.201
TGFB1I1: BNIP3L mRNA, set 1 = 0.113; NDRG1 mRNA, set 1 = 0.288
UGCG: BNIP3L mRNA, set 1 = 0.0739; NDRG1 mRNA, set 1 = 0.17
ZNF687: BNIP3L mRNA, set 1 = 0.17; NDRG1 mRNA, set 1 = 0.11
MYH14: BNIP3L mRNA, set 1 = 0.274; NDRG1 mRNA, set 1 = 0.307
TBL2: BNIP3L mRNA, set 1 = 0.0846; NDRG1 mRNA, set 1 = 0.275
DNM1: BNIP3L mRNA, set 1 = 0.127; NDRG1 mRNA, set 1 = 0.231
SFMBT1: BNIP3L mRNA, set 1 = 0.0741; NDRG1 mRNA, set 1 = 0.181
CDC42EP4: BNIP3L mRNA, set 1 = 0.0634; NDRG1 mRNA, set 1 = 0.287
EVC: BNIP3L mRNA, set 1 = 0.0678; NDRG1 mRNA, set 1 = 0.185
LY96: BNIP3L mRNA, set 1 = 0.0872; NDRG1 mRNA, set 1 = 0.244
THAP9: BNIP3L mRNA, set 1 = 0.1; NDRG1 mRNA, set 1 = 0.15
C19orf48P: BNIP3L mRNA, set 1 = 0.0989; NDRG1 mRNA, set 1 = 0.318
CNGA1: BNIP3L mRNA, set 1 = 0.216; NDRG1 mRNA, set 1 = 0.0904
VCY: BNIP3L mRNA, set 1 = 0.131; NDRG1 mRNA, set 1 = 0.483
TREX2: BNIP3L mRNA, set 1 = 0.119; NDRG1 mRNA, set 1 = 0.332
FAXDC2: BNIP3L mRNA, set 1 = 0.12; NDRG1 mRNA, set 1 = 0.148
